The source of these data is paper doi:10.64898/2025.12.10.693398.

The chains behind the UniProt entries cited, without tags or fusion partners. Where a name states a change or a piece, a line headed by the entry shows the natural chain unless it says otherwise.
UniProt P62814: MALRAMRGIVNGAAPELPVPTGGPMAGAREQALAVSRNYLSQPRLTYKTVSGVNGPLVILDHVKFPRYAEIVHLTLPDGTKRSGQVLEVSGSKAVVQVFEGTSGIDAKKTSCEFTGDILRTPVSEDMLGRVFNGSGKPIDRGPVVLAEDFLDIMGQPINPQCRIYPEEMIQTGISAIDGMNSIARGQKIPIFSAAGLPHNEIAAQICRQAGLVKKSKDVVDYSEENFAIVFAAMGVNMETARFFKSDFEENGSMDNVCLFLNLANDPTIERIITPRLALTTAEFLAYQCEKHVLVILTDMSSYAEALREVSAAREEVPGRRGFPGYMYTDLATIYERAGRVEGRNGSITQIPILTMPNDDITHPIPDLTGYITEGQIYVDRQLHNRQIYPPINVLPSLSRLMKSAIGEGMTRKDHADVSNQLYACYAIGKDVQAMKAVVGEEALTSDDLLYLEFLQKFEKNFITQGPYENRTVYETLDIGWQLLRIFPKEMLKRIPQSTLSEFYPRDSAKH
UniProt Q9JHF5: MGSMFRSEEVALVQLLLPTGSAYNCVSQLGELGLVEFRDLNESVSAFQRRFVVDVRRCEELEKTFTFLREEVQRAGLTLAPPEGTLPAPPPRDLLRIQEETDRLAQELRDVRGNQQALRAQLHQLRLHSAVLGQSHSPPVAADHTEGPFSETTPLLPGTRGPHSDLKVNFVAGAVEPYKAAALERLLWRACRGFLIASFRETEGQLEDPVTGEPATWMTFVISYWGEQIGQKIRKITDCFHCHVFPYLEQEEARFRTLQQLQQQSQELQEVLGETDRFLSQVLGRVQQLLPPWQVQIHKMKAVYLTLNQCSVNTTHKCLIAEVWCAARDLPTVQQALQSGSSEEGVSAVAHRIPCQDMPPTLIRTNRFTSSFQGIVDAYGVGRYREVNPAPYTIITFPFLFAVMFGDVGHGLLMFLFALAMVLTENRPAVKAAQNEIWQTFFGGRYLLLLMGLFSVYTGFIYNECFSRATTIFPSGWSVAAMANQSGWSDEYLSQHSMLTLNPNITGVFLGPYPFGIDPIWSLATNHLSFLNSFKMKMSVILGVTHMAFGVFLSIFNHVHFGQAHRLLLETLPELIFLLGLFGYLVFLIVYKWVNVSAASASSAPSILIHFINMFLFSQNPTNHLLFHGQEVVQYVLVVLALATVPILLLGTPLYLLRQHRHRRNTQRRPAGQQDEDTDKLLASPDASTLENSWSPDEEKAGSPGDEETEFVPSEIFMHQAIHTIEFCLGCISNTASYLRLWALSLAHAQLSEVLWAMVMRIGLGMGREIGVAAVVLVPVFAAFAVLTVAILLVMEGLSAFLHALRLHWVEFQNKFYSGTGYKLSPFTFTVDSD

No constants are given. Whether binding was seen depends on the method and setting. In cells and extracts the contact can be indirect. Binding calls can cover weak binding; strength is not graded here.

This test has as its target HA-V1b2 (mouse) (UniProt P62814). As to the kind of experiment: co-IP.

As to Flag-Voa3 (from UniProt Q9JHF5), the binding entry is listed as “binds”.
